Assay results: ChEMBL document CHEMBL5674883, “The Heterochromatin Landscape in Migrating Cells and the Importance of H3K27me3 for Associated Transcriptome Alterations” (Cells, 2018)
The source gives many values for each of these; only a part stands here.

Sequences of proteins named here, by UniProt entry; tags and fusion partners are left off.
UniProt Q61188, whole entry: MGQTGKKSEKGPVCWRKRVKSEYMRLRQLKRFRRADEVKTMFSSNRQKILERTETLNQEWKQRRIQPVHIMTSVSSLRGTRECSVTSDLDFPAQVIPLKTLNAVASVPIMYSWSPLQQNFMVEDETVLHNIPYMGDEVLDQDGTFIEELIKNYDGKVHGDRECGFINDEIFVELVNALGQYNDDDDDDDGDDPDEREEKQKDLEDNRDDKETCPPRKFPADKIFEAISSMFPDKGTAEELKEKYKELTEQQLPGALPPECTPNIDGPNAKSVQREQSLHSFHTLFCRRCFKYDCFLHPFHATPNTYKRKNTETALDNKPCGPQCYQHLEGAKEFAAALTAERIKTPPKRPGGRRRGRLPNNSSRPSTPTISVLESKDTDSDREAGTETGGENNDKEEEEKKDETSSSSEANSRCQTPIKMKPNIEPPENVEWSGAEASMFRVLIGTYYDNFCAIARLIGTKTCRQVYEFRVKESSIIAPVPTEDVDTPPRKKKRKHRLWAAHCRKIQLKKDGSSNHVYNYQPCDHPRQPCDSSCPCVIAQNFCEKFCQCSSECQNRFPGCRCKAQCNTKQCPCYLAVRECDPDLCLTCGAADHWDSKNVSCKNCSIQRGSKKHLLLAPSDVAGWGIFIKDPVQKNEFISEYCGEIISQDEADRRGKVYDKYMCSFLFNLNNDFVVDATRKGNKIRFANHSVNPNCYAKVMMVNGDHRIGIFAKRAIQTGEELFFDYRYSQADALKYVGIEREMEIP

Experiments:
Type in all cases: cell-based
[1] = target: Histone-lysine N-methyltransferase EZH2 (Mus musculus) (UniProt Q61188); test: Inhibition of EZH2 in mouse B16-F1 migrating cells assessed as fold change in H3K27me3-independent regulated D330045A20Rik-mRNA expression at 3 uM measured by ChIP-seq analysis relative to control cells
[2] = target: Histone-lysine N-methyltransferase EZH2 (Mus musculus) (UniProt Q61188); test: Inhibition of EZH2 in mouse B16-F1 migrating cells assessed as fold change in H3K27me3-buffered regulated Sema4c-mRNA expression at 3 uM measured by ChIP-seq analysis relative to control cells
[3] = target: Histone-lysine N-methyltransferase EZH2 (Mus musculus) (UniProt Q61188); test: Inhibition of EZH2 in mouse B16-F1 migrating cells assessed as fold change in H3K27me3-buffered regulated Mum1-mRNA expression at 3 uM measured by ChIP-seq analysis relative to control cells
[4] = target: Histone-lysine N-methyltransferase EZH2 (Mus musculus) (UniProt Q61188); test: Inhibition of EZH2 in mouse B16-F1 migrating cells assessed as fold change in H3K27me3-buffered regulated Bdp1-mRNA expression at 3 uM measured by ChIP-seq analysis relative to control cells
[5] = target: Histone-lysine N-methyltransferase EZH2 (Mus musculus) (UniProt Q61188); test: Inhibition of EZH2 in mouse B16-F1 migrating cells assessed as fold change in H3K27me3-buffered regulated Hoxa3-mRNA expression at 3 uM measured by ChIP-seq analysis relative to control cells
[6] = target: Histone-lysine N-methyltransferase EZH2 (Mus musculus) (UniProt Q61188); test: Inhibition of EZH2 in mouse B16-F1 migrating cells assessed as fold change in H3K27me3-buffered regulated Hmgcr-mRNA expression at 3 uM measured by ChIP-seq analysis relative to control cells
[7] = target: Histone-lysine N-methyltransferase EZH2 (Mus musculus) (UniProt Q61188); test: Inhibition of EZH2 in mouse B16-F1 migrating cells assessed as fold change in H3K27me3-buffered regulated Rasd2-mRNA expression at 3 uM measured by ChIP-seq analysis relative to control cells
[8] = target: Histone-lysine N-methyltransferase EZH2 (Mus musculus) (UniProt Q61188); test: Inhibition of EZH2 in mouse B16-F1 migrating cells assessed as fold change in H3K27me3-dependent regulated Thbs1-mRNA expression at 3 uM measured by ChIP-seq analysis relative to control cells
[9] = target: Histone-lysine N-methyltransferase EZH2 (Mus musculus) (UniProt Q61188); test: Inhibition of EZH2 in mouse B16-F1 migrating cells assessed as fold change in H3K27me3-buffered regulated Zfp40-mRNA expression at 3 uM measured by ChIP-seq analysis relative to control cells
[10] = target: Histone-lysine N-methyltransferase EZH2 (Mus musculus) (UniProt Q61188); test: Inhibition of EZH2 in mouse B16-F1 migrating cells assessed as fold change in H3K27me3-buffered regulated 4921524J17Rik-mRNA expression at 3 uM measured by ChIP-seq analysis relative to control cells
[11] = target: T1, RNA polymerase II (Mus musculus) (UniProt P08775+Q8CFI7+P97760+A0A3Q4L2S8+Q80UW8+P61219+P62488+Q923G2+P60898+O08740+Q63871+P62876); test: Inhibition of RNA polymerase II in mouse B16-F1 migrating cells assessed as fold change in Luc7l3-RNA stability at 0.1 mM measured by ChIP-seq analysis relative to control cells
[12] = target: T1, RNA polymerase II (Mus musculus); test: Inhibition of RNA polymerase II in mouse B16-F1 migrating cells assessed as fold change in Myef2-RNA stability at 0.1 mM measured by ChIP-seq analysis relative to control cells
[13] = target: T1, RNA polymerase II (Mus musculus); test: Inhibition of RNA polymerase II in mouse B16-F1 migrating cells assessed as fold change in Pros1-RNA stability at 0.1 mM measured by ChIP-seq analysis relative to control cells
[14] = target: T1, RNA polymerase II (Mus musculus); test: Inhibition of RNA polymerase II in mouse B16-F1 migrating cells assessed as fold change in Caap1-RNA stability at 0.1 mM measured by ChIP-seq analysis relative to control cells
[15] = target: T1, RNA polymerase II (Mus musculus); test: Inhibition of RNA polymerase II in mouse B16-F1 migrating cells assessed as fold change in Bbs7-RNA stability at 0.1 mM measured by ChIP-seq analysis relative to control cells
[16] = target: T1, RNA polymerase II (Mus musculus); test: Inhibition of RNA polymerase II in mouse B16-F1 migrating cells assessed as fold change in Rpsa-RNA stability at 0.1 mM measured by ChIP-seq analysis relative to control cells
[17] = target: T1, RNA polymerase II (Mus musculus); test: Inhibition of RNA polymerase II in mouse B16-F1 migrating cells assessed as fold change in Nln-RNA stability at 0.1 mM measured by ChIP-seq analysis relative to control cells
[18] = target: T1, RNA polymerase II (Mus musculus); test: Inhibition of RNA polymerase II in mouse B16-F1 migrating cells assessed as fold change in Pitrm1-RNA stability at 0.1 mM measured by ChIP-seq analysis relative to control cells
[19] = target: T1, RNA polymerase II (Mus musculus); test: Inhibition of RNA polymerase II in mouse B16-F1 migrating cells assessed as fold change in Dek-RNA stability at 0.1 mM measured by ChIP-seq analysis relative to control cells
[20] = target: T1, RNA polymerase II (Mus musculus); test: Inhibition of RNA polymerase II in mouse B16-F1 migrating cells assessed as fold change in Phospho1-RNA stability at 0.1 mM measured by ChIP-seq analysis relative to control cells
[21] = target: T1, RNA polymerase II (Mus musculus); test: Inhibition of RNA polymerase II in mouse B16-F1 migrating cells assessed as fold change in Agtrap-RNA stability at 0.1 mM measured by ChIP-seq analysis relative to control cells
[22] = target: T1, RNA polymerase II (Mus musculus); test: Inhibition of RNA polymerase II in mouse B16-F1 migrating cells assessed as fold change in Eef1g-RNA stability at 0.1 mM measured by ChIP-seq analysis relative to control cells
[23] = target: T1, RNA polymerase II (Mus musculus); test: Inhibition of RNA polymerase II in mouse B16-F1 migrating cells assessed as fold change in Rnf126-RNA stability at 0.1 mM measured by ChIP-seq analysis relative to control cells
[24] = target: T1, RNA polymerase II (Mus musculus); test: Inhibition of RNA polymerase II in mouse B16-F1 migrating cells assessed as fold change in Secisbp2l-RNA stability at 0.1 mM measured by ChIP-seq analysis relative to control cells
[25] = target: T1, RNA polymerase II (Mus musculus); test: Inhibition of RNA polymerase II in mouse B16-F1 migrating cells assessed as fold change in Cpne3-RNA stability at 0.1 mM measured by ChIP-seq analysis relative to control cells
[26] = target: T1, RNA polymerase II (Mus musculus); test: Inhibition of RNA polymerase II in mouse B16-F1 migrating cells assessed as fold change in Zfp800-RNA stability at 0.1 mM measured by ChIP-seq analysis relative to control cells
[27] = target: T1, RNA polymerase II (Mus musculus); test: Inhibition of RNA polymerase II in mouse B16-F1 migrating cells assessed as fold change in Irf2bp2-RNA stability at 0.1 mM measured by ChIP-seq analysis relative to control cells
[28] = target: T1, RNA polymerase II (Mus musculus); test: Inhibition of RNA polymerase II in mouse B16-F1 migrating cells assessed as fold change in Carnmt1-RNA stability at 0.1 mM measured by ChIP-seq analysis relative to control cells
[29] = target: T1, RNA polymerase II (Mus musculus); test: Inhibition of RNA polymerase II in mouse B16-F1 migrating cells assessed as fold change in Gtpbp4-RNA stability at 0.1 mM measured by ChIP-seq analysis relative to control cells
[30] = target: T1, RNA polymerase II (Mus musculus); test: Inhibition of RNA polymerase II in mouse B16-F1 migrating cells assessed as fold change in Hk1-RNA stability at 0.1 mM measured by ChIP-seq analysis relative to control cells

## CCCc1cc(C)[nH]c(=O)c1CNC(=O)c1cc(-c2ccnc(N3CCN(C)CC3)c2)cc2c1cnn2C(C)C
[1]
  log2FC: -0.79
[2]
  log2FC: -0.56
[3]
  log2FC: -0.55
[4]
  log2FC: -0.41
[5]
  log2FC: -0.53
[6]
  log2FC: 0.48
[7]
  log2FC: 0.59
[8]
  log2FC: 0.27
[9]
  log2FC: -0.65
[10]
  log2FC: -0.54

## OC[C@H]1O[C@@H](n2cnc3cc(Cl)c(Cl)cc32)[C@H](O)[C@@H]1O
[11]
  log2FC: -0.74
[12]
  log2FC: -0.65
[13]
  log2FC: -0.65
[14]
  log2FC: -0.75
[15]
  log2FC: -0.49
[16]
  log2FC: 0.46
[17]
  log2FC: -0.51
[18]
  log2FC: -0.5
[19]
  log2FC: -1.11
[20]
  log2FC: 0.91
[21]
  log2FC: 0.46
[22]
  log2FC: 0.42
[23]
  log2FC: 0.67
[24]
  log2FC: -0.62
[25]
  log2FC: -0.55
[26]
  log2FC: -0.93
[27]
  log2FC: -0.46
[28]
  log2FC: -0.62
[29]
  log2FC: -0.5
[30]
  log2FC: 0.6
